According to US20080206287A1, “Use of cyclosporin A to sensitize resistant cancer cells to death receptor ligands” (priority 2006, published 2008):
Some of these results come from one statement about several compounds together.

Tested on: PPC-1 cells
Experiment: PPC-1 cell viability (MTT) with or without CH-11 anti-FAS antibody
Type: cell-based
Conditions: combined with CH-11
Procedure: High throughput screening. Screens were performed using a fully integrated, programmable robotic liquid handling system (Biomek® FX, Beckman-Coulter Inc., Fullerton, Calif.), with integrated plate reader (LJL analyst HT 96-384, Sunnyvale, Calif.) and environmentally controlled plate carousel set at 37° C. and 5% CO2:95% air. PPC-1 cells (1×10^4) were seeded overnight into 96 well, flat-bottom plates (Costar, Cambridge, Mass.) in 100 μL of medium containing 2.5% FCS. The next day, aliquots from the 50,000 compound Diversa library were added at a final concentration of 7.5 μg/mL (about 25 μM) in a final concentration of 0.5% (v:v) dimethylsulfoxide (DMSO). […]
Cell death assays. Cell viability was measured by MTT and MTS assays, essentially as described in Schimmer et al. (Cancer Cell 5:25-35, 2004). Absorbance readings were plotted against a standard curve to derive the corresponding cell number, and cell viability was expressed as a percentage relative to untreated cells. Apoptosis was measured by flow cytometric analysis of Annexin V surface expression after staining cells with FITC-anti-Annexin V and propidium iodide (PI) (Biovision, Mountain View, Calif.), as described in Pedersen et al. (Blood 100:2965-72, 2002). […]
Identification of small molecule FAS sensitizers. […] Cell viability was measured 24 hours later by MTT assay. […]

`O=C(CCCOc1ccc(Cl)cc1Cl)NO` [compound 5809354, 4-(2,4-dichlorophenoxy)-N-hydroxybutanamide] was tested, and the “synergy with CH-11, median-dose combination index (CI)” value was < 1.

In the case of `CC(=O)CC(=O)Nc1ccc(Cl)c(C(F)(F)F)c1` [compound 6094911, N-[4-chloro-3-(trifluoromethyl)phenyl]-3-oxobutanamide], the “synergy with CH-11, median-dose combination index (CI)” value was < 1.
